From the supplement of paper PMC10849652
Some of the results follow.

By UniProt entry, the sequences of proteins in these tests, tags left out. Where a name states a change or a piece, a line headed by the entry shows the natural chain unless it says otherwise.
UniProt Q13190: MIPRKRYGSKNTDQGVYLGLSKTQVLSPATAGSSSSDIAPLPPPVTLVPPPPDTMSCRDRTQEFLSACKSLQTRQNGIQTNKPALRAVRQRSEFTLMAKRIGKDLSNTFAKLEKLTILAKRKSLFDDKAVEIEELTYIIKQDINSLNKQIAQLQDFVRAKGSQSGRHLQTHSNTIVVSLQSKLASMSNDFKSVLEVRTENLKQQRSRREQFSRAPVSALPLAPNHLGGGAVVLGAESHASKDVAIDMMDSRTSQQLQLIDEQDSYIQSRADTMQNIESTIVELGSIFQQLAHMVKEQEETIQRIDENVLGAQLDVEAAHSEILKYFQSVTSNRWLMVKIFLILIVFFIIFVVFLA
UniProt P16949: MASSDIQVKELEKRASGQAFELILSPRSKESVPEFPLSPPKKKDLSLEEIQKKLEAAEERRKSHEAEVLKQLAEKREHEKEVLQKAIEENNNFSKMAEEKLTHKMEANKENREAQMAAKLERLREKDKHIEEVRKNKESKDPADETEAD
UniProt Q9UNE7: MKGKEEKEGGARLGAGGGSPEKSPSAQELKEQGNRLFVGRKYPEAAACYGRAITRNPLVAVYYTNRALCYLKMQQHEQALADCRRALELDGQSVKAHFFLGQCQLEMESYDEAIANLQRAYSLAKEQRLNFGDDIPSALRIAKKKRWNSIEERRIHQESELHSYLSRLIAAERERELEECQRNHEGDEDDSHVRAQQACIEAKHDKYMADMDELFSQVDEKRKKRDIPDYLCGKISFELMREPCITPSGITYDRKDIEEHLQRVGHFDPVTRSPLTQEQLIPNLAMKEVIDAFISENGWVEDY
UniProt Q7Z7C8, whole entry, looked up: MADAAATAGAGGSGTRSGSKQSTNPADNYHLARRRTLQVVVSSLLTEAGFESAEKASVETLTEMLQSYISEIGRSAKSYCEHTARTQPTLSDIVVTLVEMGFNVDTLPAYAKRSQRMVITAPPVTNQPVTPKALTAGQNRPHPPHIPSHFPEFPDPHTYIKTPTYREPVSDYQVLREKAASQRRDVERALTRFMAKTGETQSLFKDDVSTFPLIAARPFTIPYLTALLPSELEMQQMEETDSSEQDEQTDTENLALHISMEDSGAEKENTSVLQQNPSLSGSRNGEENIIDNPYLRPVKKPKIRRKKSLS
UniProt O43815: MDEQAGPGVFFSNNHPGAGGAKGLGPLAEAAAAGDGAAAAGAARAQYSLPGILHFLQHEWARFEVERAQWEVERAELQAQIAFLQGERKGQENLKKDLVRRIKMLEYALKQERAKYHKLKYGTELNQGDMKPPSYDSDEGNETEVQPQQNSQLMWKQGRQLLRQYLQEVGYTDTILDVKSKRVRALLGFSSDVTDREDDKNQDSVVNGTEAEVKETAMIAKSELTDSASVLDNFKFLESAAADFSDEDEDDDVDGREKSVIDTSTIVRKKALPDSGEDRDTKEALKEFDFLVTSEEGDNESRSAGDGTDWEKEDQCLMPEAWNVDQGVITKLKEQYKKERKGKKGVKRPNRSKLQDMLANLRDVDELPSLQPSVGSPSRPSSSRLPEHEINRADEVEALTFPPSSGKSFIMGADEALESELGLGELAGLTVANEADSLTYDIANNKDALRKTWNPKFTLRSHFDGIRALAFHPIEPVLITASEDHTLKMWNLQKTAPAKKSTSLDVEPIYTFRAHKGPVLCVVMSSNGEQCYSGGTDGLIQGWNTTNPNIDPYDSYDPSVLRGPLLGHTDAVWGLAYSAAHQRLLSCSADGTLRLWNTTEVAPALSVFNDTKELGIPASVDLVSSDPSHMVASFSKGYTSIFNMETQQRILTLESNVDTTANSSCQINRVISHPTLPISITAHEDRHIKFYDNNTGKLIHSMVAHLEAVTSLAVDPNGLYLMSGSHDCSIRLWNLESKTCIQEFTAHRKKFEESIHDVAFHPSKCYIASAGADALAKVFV
UniProt Q13395: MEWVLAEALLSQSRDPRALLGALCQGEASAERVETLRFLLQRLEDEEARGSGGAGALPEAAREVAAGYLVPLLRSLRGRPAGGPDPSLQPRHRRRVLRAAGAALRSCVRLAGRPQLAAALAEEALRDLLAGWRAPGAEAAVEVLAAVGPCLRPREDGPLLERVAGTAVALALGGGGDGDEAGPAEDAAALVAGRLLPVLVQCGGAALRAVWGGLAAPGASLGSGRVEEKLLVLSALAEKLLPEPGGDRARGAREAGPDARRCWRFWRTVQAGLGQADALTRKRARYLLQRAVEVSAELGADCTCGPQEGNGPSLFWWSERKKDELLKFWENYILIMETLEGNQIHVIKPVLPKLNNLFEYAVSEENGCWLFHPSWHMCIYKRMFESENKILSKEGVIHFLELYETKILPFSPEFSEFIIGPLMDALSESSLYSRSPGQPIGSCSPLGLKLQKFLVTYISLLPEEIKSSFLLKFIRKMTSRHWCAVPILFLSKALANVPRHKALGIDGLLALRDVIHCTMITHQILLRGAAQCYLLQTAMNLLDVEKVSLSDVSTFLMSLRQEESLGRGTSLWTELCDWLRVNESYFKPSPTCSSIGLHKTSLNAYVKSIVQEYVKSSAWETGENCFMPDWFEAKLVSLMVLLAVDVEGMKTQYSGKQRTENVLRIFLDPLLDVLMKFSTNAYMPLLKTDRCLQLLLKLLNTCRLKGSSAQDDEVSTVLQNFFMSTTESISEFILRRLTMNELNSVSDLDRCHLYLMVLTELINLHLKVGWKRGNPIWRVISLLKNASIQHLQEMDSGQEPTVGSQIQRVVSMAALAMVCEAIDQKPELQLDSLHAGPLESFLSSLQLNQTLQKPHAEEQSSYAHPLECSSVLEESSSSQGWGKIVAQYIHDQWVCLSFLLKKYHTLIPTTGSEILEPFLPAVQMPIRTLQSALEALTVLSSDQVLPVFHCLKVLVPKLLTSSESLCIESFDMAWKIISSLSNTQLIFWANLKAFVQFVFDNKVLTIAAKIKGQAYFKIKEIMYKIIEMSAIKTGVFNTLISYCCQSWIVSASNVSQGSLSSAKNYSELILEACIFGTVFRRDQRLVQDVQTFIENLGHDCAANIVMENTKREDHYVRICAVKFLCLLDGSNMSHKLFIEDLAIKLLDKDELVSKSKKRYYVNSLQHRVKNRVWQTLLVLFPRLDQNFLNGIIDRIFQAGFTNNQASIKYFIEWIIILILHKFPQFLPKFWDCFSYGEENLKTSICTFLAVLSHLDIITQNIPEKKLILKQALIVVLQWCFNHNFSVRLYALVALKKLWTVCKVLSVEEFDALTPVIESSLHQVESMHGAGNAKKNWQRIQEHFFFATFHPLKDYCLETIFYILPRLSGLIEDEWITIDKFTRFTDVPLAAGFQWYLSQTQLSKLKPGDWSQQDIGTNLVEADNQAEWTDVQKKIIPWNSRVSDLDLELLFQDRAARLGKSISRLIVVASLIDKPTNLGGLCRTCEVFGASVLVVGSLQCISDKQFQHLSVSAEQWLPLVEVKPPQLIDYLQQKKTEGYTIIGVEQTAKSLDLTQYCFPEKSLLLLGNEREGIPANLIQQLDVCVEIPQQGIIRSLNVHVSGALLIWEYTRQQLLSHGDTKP
UniProt Q9UH99: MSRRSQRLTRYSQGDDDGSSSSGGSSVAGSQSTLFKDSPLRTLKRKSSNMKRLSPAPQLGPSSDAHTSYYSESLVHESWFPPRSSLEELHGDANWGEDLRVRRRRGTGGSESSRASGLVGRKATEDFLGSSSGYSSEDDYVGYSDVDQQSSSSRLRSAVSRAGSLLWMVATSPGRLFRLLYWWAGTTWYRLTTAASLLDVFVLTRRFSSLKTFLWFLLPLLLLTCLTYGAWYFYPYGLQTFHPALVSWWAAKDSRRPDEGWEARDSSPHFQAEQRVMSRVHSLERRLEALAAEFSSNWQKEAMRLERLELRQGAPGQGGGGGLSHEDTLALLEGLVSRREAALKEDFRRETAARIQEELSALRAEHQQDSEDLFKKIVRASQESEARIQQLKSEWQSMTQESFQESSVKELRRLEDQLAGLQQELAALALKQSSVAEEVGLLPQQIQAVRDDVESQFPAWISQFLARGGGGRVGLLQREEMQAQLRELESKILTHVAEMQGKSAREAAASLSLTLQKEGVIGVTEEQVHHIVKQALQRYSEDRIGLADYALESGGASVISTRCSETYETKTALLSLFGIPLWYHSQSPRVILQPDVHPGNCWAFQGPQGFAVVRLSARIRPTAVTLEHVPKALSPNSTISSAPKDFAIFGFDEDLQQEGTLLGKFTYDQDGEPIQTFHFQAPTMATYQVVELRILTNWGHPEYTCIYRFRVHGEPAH
UniProt P61956, whole entry, looked up: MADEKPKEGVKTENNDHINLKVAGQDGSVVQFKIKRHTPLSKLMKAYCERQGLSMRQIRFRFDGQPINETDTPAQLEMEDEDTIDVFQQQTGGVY
UniProt Q7L7X3: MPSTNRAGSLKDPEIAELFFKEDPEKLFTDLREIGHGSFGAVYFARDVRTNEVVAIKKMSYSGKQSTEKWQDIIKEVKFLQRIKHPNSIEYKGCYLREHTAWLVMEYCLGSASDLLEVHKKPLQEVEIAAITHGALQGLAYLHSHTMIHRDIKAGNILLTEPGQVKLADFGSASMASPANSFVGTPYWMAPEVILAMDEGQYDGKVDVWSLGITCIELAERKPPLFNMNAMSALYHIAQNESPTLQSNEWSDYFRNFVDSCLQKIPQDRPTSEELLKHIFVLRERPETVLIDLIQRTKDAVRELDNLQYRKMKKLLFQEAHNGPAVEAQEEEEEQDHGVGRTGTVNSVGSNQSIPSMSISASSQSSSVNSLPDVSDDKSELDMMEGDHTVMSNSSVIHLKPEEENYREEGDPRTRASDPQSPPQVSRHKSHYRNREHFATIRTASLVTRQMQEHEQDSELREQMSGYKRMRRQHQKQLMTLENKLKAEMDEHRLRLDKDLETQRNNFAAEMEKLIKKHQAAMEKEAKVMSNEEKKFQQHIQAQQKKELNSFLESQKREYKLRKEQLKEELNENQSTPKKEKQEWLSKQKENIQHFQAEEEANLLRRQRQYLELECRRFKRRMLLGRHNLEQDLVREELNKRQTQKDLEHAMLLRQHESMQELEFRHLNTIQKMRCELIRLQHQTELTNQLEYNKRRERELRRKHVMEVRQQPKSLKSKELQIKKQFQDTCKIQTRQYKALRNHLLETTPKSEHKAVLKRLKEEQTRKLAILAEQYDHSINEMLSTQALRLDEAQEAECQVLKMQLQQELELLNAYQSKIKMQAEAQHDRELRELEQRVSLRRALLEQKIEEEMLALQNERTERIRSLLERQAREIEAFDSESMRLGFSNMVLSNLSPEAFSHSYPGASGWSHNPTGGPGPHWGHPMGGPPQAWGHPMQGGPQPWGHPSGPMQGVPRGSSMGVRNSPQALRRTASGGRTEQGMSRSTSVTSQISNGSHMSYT
UniProt Q9C0B7: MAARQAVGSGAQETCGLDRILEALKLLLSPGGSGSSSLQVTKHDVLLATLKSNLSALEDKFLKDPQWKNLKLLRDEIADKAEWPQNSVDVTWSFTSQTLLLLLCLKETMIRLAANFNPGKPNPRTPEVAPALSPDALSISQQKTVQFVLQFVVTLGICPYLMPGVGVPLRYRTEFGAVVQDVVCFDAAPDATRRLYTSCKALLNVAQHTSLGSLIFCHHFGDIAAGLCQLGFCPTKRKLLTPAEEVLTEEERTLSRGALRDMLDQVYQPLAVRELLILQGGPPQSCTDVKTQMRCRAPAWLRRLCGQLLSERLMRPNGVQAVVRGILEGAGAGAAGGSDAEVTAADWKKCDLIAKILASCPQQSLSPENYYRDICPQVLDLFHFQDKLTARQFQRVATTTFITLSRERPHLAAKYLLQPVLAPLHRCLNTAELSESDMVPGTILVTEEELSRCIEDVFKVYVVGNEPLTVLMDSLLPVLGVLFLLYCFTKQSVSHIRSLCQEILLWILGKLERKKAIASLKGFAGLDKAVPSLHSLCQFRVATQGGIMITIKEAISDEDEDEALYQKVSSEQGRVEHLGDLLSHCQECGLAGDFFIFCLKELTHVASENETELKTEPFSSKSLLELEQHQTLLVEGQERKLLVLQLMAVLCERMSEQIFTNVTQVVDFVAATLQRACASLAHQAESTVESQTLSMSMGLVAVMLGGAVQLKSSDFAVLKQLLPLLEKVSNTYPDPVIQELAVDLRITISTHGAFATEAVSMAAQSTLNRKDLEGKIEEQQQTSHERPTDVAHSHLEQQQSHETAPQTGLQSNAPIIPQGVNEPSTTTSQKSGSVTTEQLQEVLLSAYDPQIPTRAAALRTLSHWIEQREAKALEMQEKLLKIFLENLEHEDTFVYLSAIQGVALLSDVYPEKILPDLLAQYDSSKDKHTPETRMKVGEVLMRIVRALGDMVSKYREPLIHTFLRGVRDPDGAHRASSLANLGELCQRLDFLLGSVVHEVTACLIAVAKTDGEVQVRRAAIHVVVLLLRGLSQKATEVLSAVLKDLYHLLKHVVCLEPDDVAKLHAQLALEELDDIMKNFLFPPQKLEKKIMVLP

How the values were obtained:
Assay in all cases: log2 fold change, soluble protein after heating vs DMSO (PISA); higher = thermal stabilisation; K562 cells, 10 uM, 30 min; active = over 0.2 and 3.5 SD of the protein, either way, in both replicates (recomputed)
[1] = compound: CS(=O)(=O)c1ccc(-c2cnc(N)c(C(=O)Nc3ccccc3)n2)cc1
In short: (§1)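 K562 cells at 2×10^6 cells/mL were treated with 10 μM compound for 30 min. Aliquots were heated for 3 min across 48°C-58°C, pooled, and extracted in PBS with 0.5% NP-40 at 4°C; soluble protein was the supernatant after 21,000xg for 90 min. Soluble protein was quantified by TMTpro 16plex LC-MS/MS with channel sums equalised, and reported as log2 fold change in thermal stability against DMSO controls, with values from duplicates.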

crizotinib = compound: C[C@@H](Oc1cc(-c2cnn(C3CCNCC3)c2)cnc1N)c1c(Cl)ccc(F)c1Cl [crizotinib]
In short: as §1

[2] = compound: C[C@@H]1COCCN1C2=NC(=NC(=C2)C3(CC3)S(=O)(=O)C)C4=C5C=CNC5=CC=C4
In short: as §1

[3] = compound: C[C@H](C1=CC=C(C=C1)C(=O)NC2=C3C=CNC3=NC=C2)N
In short: as §1

duvelisib = compound: C[C@H](Nc1ncnc2nc[nH]c12)c1cc2cccc(Cl)c2c(=O)n1-c1ccccc1 [duvelisib]
In short: as §1

gandotinib = compound: Cc1cc(Nc2cc(CN3CCOCC3)c3nc(C)c(Cc4ccc(Cl)cc4F)n3n2)n[nH]1 [gandotinib]
In short: as §1

tozasertib = compound: Cc1cc(Nc2cc(N3CCN(C)CC3)nc(Sc3ccc(NC(=O)C4CC4)cc3)n2)n[nH]1 [tozasertib]
In short: as §1

[4] = compound: Cc1cc(SCc2sc(-c3ccc(C(F)(F)F)cc3)nc2C)ccc1OCC(=O)O
In short: as §1

doramapimod = compound: Cc1ccc(-n2nc(C(C)(C)C)cc2NC(=O)Nc2ccc(OCCN3CCOCC3)c3ccccc23)cc1 [doramapimod]
In short: as §1

ispinesib = compound: Cc1ccc(C(=O)N(CCCN)[C@@H](c2nc3cc(Cl)ccc3c(=O)n2Cc2ccccc2)C(C)C)cc1 [ispinesib]
In short: as §1

Target	log2 fold change [1]	log2 fold change (crizotinib)	log2 fold change [2]	log2 fold change [3]	log2 fold change (duvelisib)	log2 fold change (gandotinib)	log2 fold change (tozasertib)	log2 fold change [4]	log2 fold change (doramapimod)	log2 fold change (ispinesib)
STX5 (UniProt Q13190)	inactive: 0.064	inactive: 0.007	inactive: 0.317	inactive: 0.142	inactive: -0.037	inactive: 0.03	inactive: -0.037	inactive: 0.036	inactive: 0.05	inactive: 0.009
STMN1 (UniProt P16949)	inactive: -0.02	inactive: 0.029	inactive: -0.05	inactive: -0.03	inactive: 0.014	inactive: -0.006	inactive: -0.03	inactive: -0.047	inactive: -0.01	inactive: 0.004
SULT1A3 isoform 3 (UniProt P0DMM9)	inactive: 0.058	inactive: 0.021	inactive: 0.082	inactive: 0.056	inactive: 0.06	inactive: 0.04	inactive: 0.124	inactive: 0.011	inactive: -0.028	inactive: -0.048
SUMF2 (UniProt Q8NBJ7)	inactive: 0.043	inactive: -0.056	inactive: -0.002	inactive: 0.037	inactive: -0.031	inactive: 0.016	inactive: 0.032	inactive: 0.026	inactive: 0.019	inactive: -0.066
SUPT6H (UniProt Q7KZ85)	inactive: 0.064	inactive: 0.083	inactive: 0.15	inactive: 0.214	inactive: 0.053	inactive: -0.132	inactive: -0.025	inactive: 0.233	inactive: -0.117	inactive: -0.034
SUCO (UniProt Q9UBS9)	inactive: 0.117	inactive: -0.36	inactive: 0.028	inactive: 0.347	inactive: -0.093	inactive: 0.08	inactive: -0.053	inactive: 0.041	inactive: -0.152	inactive: -0.185
TAF9 (UniProt Q16594)	inactive: -0.029	inactive: 0.043	inactive: 0.007	inactive: 0.116		inactive: -0.047		inactive: -0.131	inactive: -0.019	inactive: -0.007
STUB1 (UniProt Q9UNE7)	inactive: 0.067	inactive: -0.114	inactive: -0.198	inactive: 0.334	inactive: -0.094	inactive: -0.003	inactive: 0.078	inactive: 0.123	inactive: 0.106	inactive: -0.045
TAF8 isoform 2 (UniProt Q7Z7C8)	inactive: -0.073	inactive: 0.01	inactive: 0.011	inactive: -0.01	inactive: -0.055	inactive: 0.041	inactive: 0.03	inactive: -0.04	inactive: -0.051	inactive: -0.015
TAF2 (UniProt Q6P1X5)	inactive: -0.012	inactive: -0.047	inactive: 0.015	inactive: 0.068	inactive: 0.045	inactive: 0.104	inactive: -0.295	inactive: -0.04	inactive: 0.005	inactive: -0.063
TADA3 (UniProt O75528)	inactive: -0.019	inactive: -0.031	inactive: 0.055	inactive: -0.082	inactive: 0.045	inactive: 0.003	inactive: -0.006	inactive: -0.003	inactive: 0.014	inactive: 0.054
STX10 (UniProt O60499)	inactive: -0.031	inactive: 0.082	inactive: 0.029	inactive: -0.016	inactive: 0.072	inactive: 0.022	inactive: 0.014	inactive: 0.033	inactive: -0.032	inactive: 0.029
SURF6 (UniProt O75683)	inactive: 0.058	inactive: 0.026	inactive: -0.358	inactive: 0.355	inactive: -0.133	inactive: 0.258	inactive: 0.082	inactive: -0.043	inactive: 0.119	inactive: 0.134
STXBP3 (UniProt O00186)	inactive: 0.068	inactive: -0.186	inactive: 0.006	inactive: 0.104	inactive: -0.01	inactive: -0.164	inactive: 0.029	inactive: 0.132	inactive: 0.076	inactive: -0.133
STK3 isoform 2 (UniProt Q13188)	inactive: 0.028	inactive: -0.052	inactive: -0.003	inactive: 0.005	inactive: 0.016	inactive: 0.051	inactive: -0.037	inactive: -0.013	inactive: 0.028	inactive: 0.007
SYNGR2 (UniProt O43760)	inactive: -0.044	inactive: 0.132	inactive: 0.168	inactive: 0.021	inactive: 0.062	inactive: -0.047	inactive: -0.018	inactive: -0.163	inactive: 0.014	inactive: -0.005
STRN (UniProt O43815)	inactive: 0.016	inactive: 0.068	inactive: -0.004	inactive: -0.125		inactive: -0.048		inactive: 0.076	inactive: -0.018	inactive: 0.198
TARBP1 (UniProt Q13395)	inactive: 0.076	inactive: 0.016	inactive: 0.028	inactive: -0.074		inactive: -0.075		inactive: 0.038	inactive: -0.004	inactive: 0.026
STK39 (UniProt Q9UEW8)	inactive: 0.109	inactive: -0.174	inactive: 0.028	inactive: 0.061		inactive: -0.038		inactive: 0.048	inactive: -0.027	inactive: -0.038
SUMF1 isoform 3 (UniProt Q8NBK3)	inactive: -0.134	inactive: 0.037	inactive: 0.118		inactive: 0.11	inactive: -0.031	inactive: -0.342	inactive: -0.03	inactive: -0.1	inactive: -0.018
SUN2 (UniProt Q9UH99)	inactive: -0.001	inactive: -0.094	inactive: 0.063	inactive: 0.044		inactive: 0.004		inactive: 0.05	inactive: 0.077	inactive: -0.104
SUMO2 (UniProt P61956)	inactive: -0.082	inactive: 0.085		inactive: 0.032	inactive: -0.153	inactive: 0.081	inactive: -0.133	inactive: 0.031	inactive: 0.002	inactive: -0.187
STXBP2 isoform 3 (UniProt Q15833)	inactive: 0.049	inactive: -0.301	inactive: 0.022	inactive: 0.039		inactive: -0.03		inactive: 0.17	inactive: 0.152	inactive: -0.306
STX7 (UniProt O15400)	inactive: 0	inactive: -0.187	inactive: 0.015	inactive: -0.042		inactive: -0.18		inactive: -0.055	inactive: 0.04	active: -0.246
STOM (UniProt P27105)	inactive: 0.086	inactive: -0.005	inactive: -0.035	inactive: 0.182		inactive: 0.268		inactive: 0.01	inactive: -0.006	inactive: -0.29
TAOK1 (UniProt Q7L7X3)	inactive: -0.002	inactive: -0.035	inactive: 0.011	inactive: -0.08		inactive: -0.029		inactive: 0.023	inactive: 0.021	inactive: -0.001
SUOX (UniProt P51687)	inactive: 0.016	inactive: 0.076	inactive: 0.098	inactive: 0.001		inactive: 0.063		inactive: -0.075	inactive: -0.338	inactive: -0.034
TANGO6 (UniProt Q9C0B7)	inactive: 0.006	inactive: -0.123	inactive: -0.022	active: 0.366				inactive: 0.078	inactive: -0.004	inactive: -0.085
STXBP5 (UniProt Q5T5C0)	inactive: -0.021	inactive: -0.024	inactive: 0.006	inactive: 0.047		inactive: -0.029		inactive: -0.002	inactive: 0.026	inactive: -0.058
SYNE1 (UniProt Q8NF91)	inactive: 0.096	inactive: -0.132	inactive: -0.041	inactive: 0.104		inactive: 0.109		inactive: -0.04	inactive: 0.061	inactive: -0.159

As a short view, some entries already given:
Target	log2 fold change [1]	log2 fold change (crizotinib)	log2 fold change [2]	log2 fold change [3]	log2 fold change (duvelisib)	log2 fold change (gandotinib)	log2 fold change (tozasertib)	log2 fold change [4]	log2 fold change (doramapimod)	log2 fold change (ispinesib)
SUMF2 (UniProt Q8NBJ7)	inactive: 0.043	inactive: -0.056	inactive: -0.002	inactive: 0.037	inactive: -0.031	inactive: 0.016	inactive: 0.032	inactive: 0.026	inactive: 0.019	inactive: -0.066
SUPT6H (UniProt Q7KZ85)	inactive: 0.064	inactive: 0.083	inactive: 0.15	inactive: 0.214	inactive: 0.053	inactive: -0.132	inactive: -0.025	inactive: 0.233	inactive: -0.117	inactive: -0.034
